These results are taken from publication PMC5996148.

Protein sequences, listed by entry. Tags and fused reporters are not part of them. Lines headed by an entry give the natural chain unless they say otherwise; changes in a name come on top.
UniProt Q9BY49: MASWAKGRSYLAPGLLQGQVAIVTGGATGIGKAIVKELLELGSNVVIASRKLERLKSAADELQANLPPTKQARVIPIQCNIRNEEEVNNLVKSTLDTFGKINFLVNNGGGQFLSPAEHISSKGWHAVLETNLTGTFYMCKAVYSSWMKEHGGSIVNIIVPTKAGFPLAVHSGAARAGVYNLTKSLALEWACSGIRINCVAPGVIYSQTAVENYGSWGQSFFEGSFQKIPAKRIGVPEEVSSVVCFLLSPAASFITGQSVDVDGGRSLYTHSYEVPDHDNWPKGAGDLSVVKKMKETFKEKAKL

The list shows a part of the results. For some of these results: Construct or isoform of the protein are uncertain.

Test systems include PDK4 (human); PDZD11 (human); PDZK1IP1 (human); PEPD (human); PEX11B (human).
Experiment in all cases: protein microarray (ProtoArray v5.0), streptavidin-Alexa Fluor 647
Holding throughout (conditions): 3'-biotin; 20 mM Tris (pH 7.5), 5 mM MgCl2, 100 mM KCl, 0.1% Tween-20, A/T-rich and random oligonucleotide blockers; temperature not stated; high values mean tight binding

In experiment [1] the test system is PDZ and LIM domain protein 3 (human).
Experiment [2] has as its system PDZ and LIM domain protein 4 (human).
Experiment [3] relates to PDZK1-interacting protein 1 (human).
For a further experiment, the target named is PECR (UniProt Q9BY49).
For the next experiment, the target named is T1, PEMT (UniProt Q9UBM1).
T1 sequence: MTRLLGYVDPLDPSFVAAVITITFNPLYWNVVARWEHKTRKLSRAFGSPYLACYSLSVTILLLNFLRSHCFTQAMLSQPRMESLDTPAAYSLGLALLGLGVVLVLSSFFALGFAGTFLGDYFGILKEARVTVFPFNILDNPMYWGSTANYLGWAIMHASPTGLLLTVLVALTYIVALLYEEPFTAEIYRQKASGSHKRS

For the sequence “GGGGACAGGGGTATGGGGAGGGG [G4-3 biotinylated (CtG)]”, the binding signal was -0.333 z-score with PDK4 (human); -0.332 z-score in experiment [1]; -0.309 z-score in experiment [2]; -0.324 z-score in the experiment with PDZD11 (human); -0.317 z-score in [3]; -0.315 z-score with PDZK1IP1 (human). The binding signal with PECR was 4.12 z-score; with PEMT, -0.304 z-score; in the experiment with PEPD (human) it was -0.334 z-score; in the experiment with PEX11B (human), -0.315 z-score.
